Reference: PubChem BioAssay AID248 (DTP/NCI, 2004)
The list shows only some results of the screen, not a fair sample: it is rich in T/C values a quarter to a half above the control, in often repeated tests (any T/C) and in doses without a T/C. Other doses and runs of a compound stand elsewhere. T/C is the treated group as % of the vehicle group. Some entries give survivors of the animals treated and no T/C: the source holds a T/C of zero for them, seemingly a mark for toxic or unscored doses. Some survivor counts are full or nearly so, which does not show that the dose was tolerated: the source hardly ever lists a survival T/C far under the control, and the zero likely stands for such cases as well. Survivors were counted at the toxicity check, usually on the fifth day, unless a day is given; later deaths do not show. Schedules are NCI's codes, taken here to give the interval after Q, in days (D) or hours (H), and the number of doses after X. Some schedule codes hold Z or #, which are not explained here. Where survival is the endpoint, this PubChem deposit counts one and a half times the control or more as active, and values a quarter to a half above the control carry no call in these data; other NCI protocols may use other cut-offs. Some T/C values carry the count of animals alive at the toxicity check (mostly the fifth day); without a count, all were alive then. Some doses were run more than once; the results are listed from low to high. Marks such as (2×) say how often a value occurs here.

Test system: L1210 leukemia ip in BDF1 mice, survival T/C
Assay: NCI In Vivo Anticancer Drug Screen. Data for tumor model L1210 Leukemia (intraperitoneal) in B6D2F1 (BDF1) mice
Details: higher T/C = longer survival; for T/C: schedule: Q02DX010 (ip)

## CCOC(=O)c1cc2nc(C(C)C)n(Cc3ccccc3)c2cc(C(=O)OCC)c1=O
T/C endpoint: mean survival time, dose: 400.0 mg/kg/injection, schedule: Q01DX009 (ip), vehicle: Klucel (hydroxypropylcellulose) (HPC)
  survivor count: 3 of 3

## CS(=O)(=O)OCCCCOS(C)(=O)=O
T/C endpoint: mean survival time, dose: 14.2 mg/kg/injection, vehicle: carboxymethylcellulose (CMC)
  T/C: 93, 95, 115 (2×), 133 % of control
T/C endpoint: mean survival time, dose: 22.1 mg/kg/injection, vehicle: carboxymethylcellulose (CMC)
  T/C: 96, 102, 103, 106, 110 % of control
T/C endpoint: mean survival time, dose: 25.0 mg/kg/injection, schedule: Q01DX010 (ip), vehicle: saline
  survivor count: 6 of 6
T/C endpoint: mean survival time, dose: 33.0 mg/kg/injection, vehicle: carboxymethylcellulose (CMC)
  T/C: 96, 101, 102 (2×), 103, 107 % of control (2×)
T/C endpoint: mean survival time, dose: 49.5 mg/kg/injection, vehicle: carboxymethylcellulose (CMC)
  T/C: 76, 105, 106, 109 % of control (2×)
T/C endpoint: mean survival time, dose: 50.0 mg/kg/injection, schedule: Q01DX Z (ip), vehicle: carboxymethylcellulose (CMC)
  survivor count: 0 of 6
T/C endpoint: mean survival time, dose: 74.25 mg/kg/injection, vehicle: carboxymethylcellulose (CMC)
  T/C: 76, 77 [4 of 5 alive], 85, 102, 117 % of control
T/C endpoint: mean survival time, dose: 80.0 mg/kg/injection, schedule: Q01DX Z (ip), vehicle: carboxymethylcellulose (CMC)
  survivor count: 6 of 10
T/C endpoint: mean survival time, dose: 240.0 mg/kg/injection, schedule: Q01DX001 (ip), vehicle: carboxymethylcellulose (CMC)
  survivor count: 1 of 6
T/C endpoint: mean survival time, dose: 320.0 mg/kg/injection, schedule: Q01DX Z (oral), vehicle: saline
  survivor count: 1 of 6
T/C endpoint: mean survival time, dose: 480.0 mg/kg/injection, schedule: Q01DX001 (ip), vehicle: carboxymethylcellulose (CMC)
  survivor count: 0 of 6
T/C endpoint: mean survival time, dose: 640.0 mg/kg/injection, schedule: Q01DX Z (oral), vehicle: saline
  survivor count: 0 of 6
T/C endpoint: median survival time, dose: 100.0 mg/kg/injection, schedule: Q01DX009 (ip), vehicle: saline
  survivor count: 4 of 6

## O=C1C2C(C(=O)N1c1ccccc1)C1c3ccccc3C2C2CCCCN21 (configuration not stated)
T/C endpoint: mean survival time, dose: 200.0 mg/kg/injection, schedule: Q04DX003 (ip), vehicle: Klucel (hydroxypropylcellulose) (HPC)
  survivor count: 1 of 6
T/C endpoint: mean survival time, dose: 400.0 mg/kg/injection, schedule: Q04DX003 (ip), vehicle: Klucel (hydroxypropylcellulose) (HPC)
  survivor count: 1 of 6

## O=C(c1ccccc1)N(CCCl)C(=O)N(CCCl)C(=O)c1ccccc1
T/C endpoint: mean survival time, dose: 300.0 mg/kg/injection, schedule: Q01DX009 (ip), vehicle: saline with Tween-80
  survivor count: 6 of 6
